Source: US20240341337A1, “METHOD FOR CREATING MASKING COMPOSITIONS” (GIVAUDAN SA, priority 2021, published 2024)

Assay: GC-O analysis of pea protein isolate to identify key off-notes
Details: pea protein isolate Pisane C9, GC-O

SMILES | Descriptors (off-note odor)
COc1nccnc1C(C)C [Ex. A, propyl-iso-2 methoxy-3-pyrazine] | Pea-like
COc1nccnc1CC(C)C [Ex. B, isobutyl-3-methoxy-2-pyrazine] | Earthy green
CCCC/C=C/C=O [Ex. C, heptenal-2-trans] | Cardboardy
CC/C=C\CCC=O [Ex. D, heptenal-4-cis] | Vegetal
CCCCCCO [Ex. E, hexanol] | Soapy
